Measured values as given in publication PMC7044342.
Results are given in words; binding and its absence hold for the method and conditions named. Some entries that bind do so weakly or less than the wild type.

Experiments:
[1] = molecular target: AtCCA1 (… CLOCK-ASSOCIATED 1) (Arabidopsis thaliana) (UniProt P92973); test: two-hybrid; Matchmaker Y2H system (Clontech), Y2HGold yeast co-transfected with pGBKT7 and pGADT7 fusions; quadruple dropout medium (lacking tryptophan, leucine, histidine, adenine) with 150 ng/ml aureobasidin A and X-alpha-Gal (40 ug/ml)
[2] = molecular target: AtLHY (LATE ELONGATED HYPOCOTYL) (Arabidopsis thaliana) (UniProt Q6R0H1); test: as above

- binding [1]: binds
- binding [2]: binds weakly
B1: AtLHY (LATE ELONGATED HYPOCOTYL) (protein, UniProt Q6R0H1 1-645)
chain: MDTNTSGEELLAKARKPYTITKQRERWTEDEHERFLEALRLYGRAWQRIEEHIGTKTAVQIRSHAQKFFTKLEKEAEVKGIPVCQALDIEIPPPRPKRKPNTPYPRKPGNNGTSSSQVSSAKDAKLVSSASSSQLNQAFLDLEKMPFSEKTSTGKENQDENCSGVSTVNKYPLPTKQVSGDIETSKTSTVDNAVQDVPKKNKDKDGNDGTTVHSMQNYPWHFHADIVNGNIAKCPQNHPSGMVSQDFMFHPMREETHGHANLQATTASATTTASHQAFPACHSQDDYRSFLQISSTFSNLIMSTLLQNPAAHAAATFAASVWPYASVGNSGDSSTPMSSSPPSITAIAAATVAAATAWWASHGLLPVCAPAPITCVPFSTVAVPTPAMTEMDTVENTQPFEKQNTALQDQNLASKSPASSSDDSDETGVTKLNADSKTNDDKIEEVVVTAAVHDSNTAQKKNLVDRSSCGSNTPSGSDAETDALDKMEKDKEDVKETDENQPDVIELNNRKIKMRDNNSNNNATTDSWKEVSEEGRIAFQALFARERLPQSFSPPQVAENVNRKQSDTSMPLAPNFKSQDSCAADQEGVVMIGVGTCKSLKTRQTGFKPYKRCSMEVKESQVGNINNQSDEKVCKRLRLEGEAST
